Test results: US5591763A, “treatments for diseases characterized by neovascularization” (President and Fellows of Harvard College, priority 1995, dated 1997)

Test system: rat vascular smooth muscle cells
Experiment: cells
Type: cell-based
Conditions: read-out: ID50, inhibition of DNA synthesis
Procedure: DNA synthesis assessed by the uptake of [3H]thymidine: Cells are grown in either 48 or 96 wells plates (Costar, Cambridge, Mass.) at 104 and 0.8 10^3 cells per well, respectively, and grown in Dubelcco's modified Eagle's medium (DME, Gibco, Grand Island, N.Y.) supplemented with 10% heat-inactivated calf serum; they are kept at 37° C. in 5% CO2. When they reach confluence, usually between 3 and 4 days, the medium is replaced with DME 0.5% serum to make them quiescent, and mitogenesis assays are performed 24 hours later.
Quiescent cells are exposed to a mitogenic stimulus, such as 10% serum, PDGF (Sigma Co. St. Louis, Mo.), bFGF (Upstate Biotechnologies, Lake Placid, N.Y.), or other appropriate mitogen according to the cell line, and 3 hours later 1 μCi/ml of [3H]thymidine (Dupont, Billerica, Mass. ) is added to the wells, and the cells maintained at 37° C./5% CO2 for additional 21 hours. Then the cells are washed 3 times with DME medium and the acid-precipitable radioactivity is extracted with cold 10% TCA (Sigma, Co). After neutralization with 0.3 N NaOH (Sigma Co.), aliquots are counted in a Packard Tri-Carb Scintillation counter (Packard Instrument, Downer's Grove, Ill.). […]

Compound: Clc1ccccc1C(c1ccccc1)(c1ccccc1)n1ccnc1 [clotrimazole]
- IC50: ~1500 nM
